In patent publication US12281161B2, “Polypeptides and uses thereof” (TRUSTEES OF BOSTON UNIVERSITY, priority 2021, dated 2025):
Some entries share one result that the patent states for a list of compounds. At least one compound was matched to its structure with a doubt left. Where a SMILES comes first, the peptide text is derived from it. [ ]: non-standard residue; d: D form. The star is where a group is joined. Dolaproine = CO[C@@H]([C@@H]1CCCN1)[C@@H](C)C(=O)O; Dil = CC[C@H](C)[C@H](NC)[C@@H](CC(=O)O)OC; X1 = C[C@@H](N*)[C@@H](O)c1ccccc1; NMeV = CN[C@H](C(=O)O)C(C)C

System: NHLF
Test: in vitro cytotoxicity (MTT)
Type: cell-based, human
Conditions: at 60 hours
Experimental: We utilized two different incubation methods.
We then incubated the human cell lines with ADC, and equivalent concentrations of MMAE and native Ab for both 48 hours and 72 hours, the results of which can be seen in FIG. 13A-13E. We expected the results to correlate with the GPR87 expression we observed by flow cytometry. For the normal cell lines, this was the case. As detailed in FIG. 14, the line that was most sensitive to the ADC were the NHLFs, followed by the BEAS-2Bs, and the line with the lowest GPR87 expression, the HUVECs, had the highest IC50 after 72 hours. However, both the NSCLC cell lines had relatively high IC50s given the GPR87 expression status of these lines.
Standard cytotoxicity assays, like the MTT assays ran here, measure or rather, approximate the cell number at an end point and compare to control untreated cells. Effectively what is measured is a comparison between growth rates. When comparing the efficacy of a drug, particularly a mitotic inhibitor, among different cell lines, division rate differences due to biology, media additives, or seeding density can have a dramatic effect on the IC50, an issue brought up by Hafner et al. They reported with both modeling and in vitro assays how using the IC50 as a metric can actually mask the true mechanism of a drug, for example the microtubule inhibitor paclitaxel. […]

SMILES: CC[C@H](C)[C@@H]([C@@H](CC(=O)N1CCC[C@H]1[C@H](OC)[C@@H](C)C(=O)N[C@H](C)[C@@H](O)c1ccccc1)OC)N(C)C(=O)[C@@H](NC(=O)[C@@H](NC)C(C)C)C(C)C [MMAE, Monomethyl auristatin E, reference compound] (H-[NMeV]V[Dil][Dolaproine]-X1)
- normalized growth rate inhibition (GR): ≥ 1
